No constants are given. Whether binding was seen depends on the method and setting.
Tests used:
[1] = target: prolyl oligopeptidase (POP) (human) (UniProt P48147); experiment: SPR; Biacore T200, PREPL or POP amine-coupled on CM5 (1134.6 RU PREPL, 1514.1 RU POP); α-Syn analyte 0.1-250 μM (BSA as specificity control), HBS + EP pH 7.4, 25 °C, 15 μL/min; apparent Kd from response vs. concentration (one-site equation, α-Syn below 50 μM) and Kd from ka and kd of the Biacore evaluation software; both purified
[2] = target: prolyl endopeptidase-like (PREPL) protein (human) (UniProt Q4J6C6); experiment: as above

By UniProt entry, the sequences of proteins in these tests, tags left out. Residues count along the entry.
UniProt P48147: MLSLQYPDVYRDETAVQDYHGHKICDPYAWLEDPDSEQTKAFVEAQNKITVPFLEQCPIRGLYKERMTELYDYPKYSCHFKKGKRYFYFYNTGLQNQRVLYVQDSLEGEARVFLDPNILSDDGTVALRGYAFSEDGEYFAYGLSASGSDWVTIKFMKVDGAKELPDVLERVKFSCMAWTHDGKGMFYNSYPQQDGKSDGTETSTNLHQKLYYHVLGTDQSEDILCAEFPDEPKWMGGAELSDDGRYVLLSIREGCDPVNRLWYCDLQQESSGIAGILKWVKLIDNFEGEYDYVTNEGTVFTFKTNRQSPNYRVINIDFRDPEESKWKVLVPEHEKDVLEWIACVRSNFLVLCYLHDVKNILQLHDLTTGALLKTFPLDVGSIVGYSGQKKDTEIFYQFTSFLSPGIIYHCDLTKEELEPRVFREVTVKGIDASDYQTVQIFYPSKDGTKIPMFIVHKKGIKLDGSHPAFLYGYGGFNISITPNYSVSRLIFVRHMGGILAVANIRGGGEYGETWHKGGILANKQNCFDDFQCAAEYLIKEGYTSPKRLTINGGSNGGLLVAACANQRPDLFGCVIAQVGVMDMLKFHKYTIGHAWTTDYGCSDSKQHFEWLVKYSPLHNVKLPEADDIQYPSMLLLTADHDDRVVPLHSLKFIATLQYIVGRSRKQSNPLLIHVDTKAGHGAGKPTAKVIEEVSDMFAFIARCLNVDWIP
UniProt P02769, residues 25-607: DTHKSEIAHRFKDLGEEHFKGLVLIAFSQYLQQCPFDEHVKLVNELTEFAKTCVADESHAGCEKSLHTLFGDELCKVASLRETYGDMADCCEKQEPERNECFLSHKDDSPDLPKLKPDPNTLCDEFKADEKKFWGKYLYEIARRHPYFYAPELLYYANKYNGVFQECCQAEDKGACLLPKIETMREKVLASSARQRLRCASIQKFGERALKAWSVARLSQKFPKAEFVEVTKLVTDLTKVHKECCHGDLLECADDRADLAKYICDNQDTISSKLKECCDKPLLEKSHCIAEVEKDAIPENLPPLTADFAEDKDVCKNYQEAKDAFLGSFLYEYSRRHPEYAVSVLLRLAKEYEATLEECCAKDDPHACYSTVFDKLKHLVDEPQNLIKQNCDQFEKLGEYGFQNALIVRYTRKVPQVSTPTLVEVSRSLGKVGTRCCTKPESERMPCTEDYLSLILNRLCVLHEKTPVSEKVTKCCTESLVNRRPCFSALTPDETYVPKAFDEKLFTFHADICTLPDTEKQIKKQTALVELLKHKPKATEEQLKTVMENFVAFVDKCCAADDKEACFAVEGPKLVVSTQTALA

## bovine serum albumin (from UniProt P02769 25-607)
[1]
  binding: no binding
[2]
  binding: no binding

From paper PMC7355856
